Source: the supplement of paper PMC8288183
This is one part of the list. Single values are uncertain, as repeats are few or missing.

Target: T1, NSUN6 (UniProt Q8TEA1)
T1 sequence: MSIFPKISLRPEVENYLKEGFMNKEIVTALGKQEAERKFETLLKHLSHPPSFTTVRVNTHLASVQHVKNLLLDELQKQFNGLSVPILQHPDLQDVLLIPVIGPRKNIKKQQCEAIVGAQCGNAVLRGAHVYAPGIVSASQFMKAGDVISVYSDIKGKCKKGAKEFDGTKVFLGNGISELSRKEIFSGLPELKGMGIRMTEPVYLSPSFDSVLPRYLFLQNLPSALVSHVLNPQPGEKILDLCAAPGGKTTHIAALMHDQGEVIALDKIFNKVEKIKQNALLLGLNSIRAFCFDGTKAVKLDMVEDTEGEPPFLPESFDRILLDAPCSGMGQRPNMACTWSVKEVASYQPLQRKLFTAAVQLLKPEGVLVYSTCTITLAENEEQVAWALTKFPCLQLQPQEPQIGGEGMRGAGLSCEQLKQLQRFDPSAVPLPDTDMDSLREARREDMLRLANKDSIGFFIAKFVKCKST
Experiment: m5C methylation level at the target C (C/(C+U) bisulfite reads) (fraction); higher = more methylation by NSUN6; extreme values may be limits of the assay
Settings: HEK293T (wild-type)

[1] = parent substrate: substrate #1 (main figure)

Sequence | m5C methylation level at the target C [1] | m5C methylation level at the target C (parent substrate: substrate #2) | m5C methylation level at the target C (parent substrate: substrate #3) | m5C methylation level at the target C (parent substrate: substrate #4)
UCGACU | 0.000922 | 0.00108 | 0 | 0
CCACUA | 0.00097 | 0.00118 | 0.0014 | 0.00172
ACGCAU | 0.00143 | 0.00204 | 0.00221 | 0.00184
ACAUUA | 0.0123 | 0.00101 | 0.000678 | 0.000522
CCGAGA | 0.00152 | 0.00104 | 0.000545 | 0.00256
GCAGCU | 0.00102 | 0 | 0.000801 | 0.000777
ACCGUG | 0.00159 | 0.000653 | 0.00152 | 0.00835
UCGUUC | 0.0023 | 0.00413 | 0.000345 | 0
CCCACG | 0.00519 | 0 | 0.000533 | 0.00262
ACGCGC | 0.00881 | 0.00299 | 0.00208 | 0
ACGGUC | 0.00178 | 0.00105 | 0.0117 | 0.00739
CCCCAU | 0.00501 | 0 | 0.000754 | 0.00062
UCGUAU | 0 | 0.00131 | 0.00102 | 0.00434
UCUGAU | 0 | 0.00155 | 0 | 0.000476
ACCAGA | 0.00198 | 0.00208 | 0 | 0.00235
GCCUAU | 0.000798 | 0.00161 | 0.0018 | 0.00322
ACGCCG | 0.00117 | 0.00191 | 0.000796 | 0
UCCCCG | 0 | 0.00133 | 0 | 0.000689
CCGCAA | 0.00272 | 0.000562 | 0.000826 | 0.00158
UCAAUU | 0.00232 | 0 | 0.00323 | 0.000573
GCUGCA | 0.000895 | 0 | 0.00432 | 0.00129
ACUUUA | 0.00133 | 0 | 0.00175 | 0
UCCUGC | 0.000498 | 0 | 0.000696 | 0
ACUGUG | 0 | 0.00223 | 0.00303 | 0

Sequence | m5C methylation level at the target C [1] | m5C methylation level at the target C (parent substrate: substrate #2) | m5C methylation level at the target C (parent substrate: substrate #3) | m5C methylation level at the target C (parent substrate: substrate #4)
GCAUCG | 0.0011 | 0.000788 | 0.00105 | 0
CCUCGC | 0.00124 | 0.00448 | 0 | 0.000614
GCCGUG | 0.00178 | 0.000724 | 0.00193 | 0
CCAGCA | 0 | 0 | 0.00499 | 0.000646
ACGAUA | 0.0019 | 0 | 0 | 0
CCGACA | 0.000838 | 0 | 0.000495 | 0.0055
GCAUUA | 0.00048 | 0.00275 | 0.00049 | 0
ACGAAA | 0 | 0.00478 | 0.00488 | 0.0018
UCACCU | 0 | 0.00312 | 0.00367 | 0.00142
ACUCCC | 0.000509 | 0.00114 | 0 | 0
CCGUCC | 0.000436 | 0 | 0.00087 | 0.000355
GCACAU | 0 | 0 | 0.00144 | 0
CCAUGA | 0 | 0 | 0.000371 | 0
ACUGUA | 0.00322 | 0.00189 | 0.0044 | 0.00064
GCCCUC | 0.00642 | 0.00352 | 0.00397 | 0.00211
UCUAUA | 0.00398 | 0 | 0.00217 | 0.00104
ACCUAG | 0.00202 | 0.00259 | 0 | 0
GCAAUG | 0 | 0 | 0.000955 | 0.00155
ACCAUC | 0 | 0 | 0.000751 | 0
ACCUCG | 0.00667 | 0.00358 | 0 | 0.00257
UCUGUC | 0.000716 | 0.00336 | 0 | 0
ACUCUG | 0.000567 | 0 | 0.000772 | 0.00984
CCAGUG | 0.00114 | 0 | 0.00129 | 0.00964
CCCGCC | 0.00139 | 0.000832 | 0.000632 | 0

Sequence | m5C methylation level at the target C [1] | m5C methylation level at the target C (parent substrate: substrate #2) | m5C methylation level at the target C (parent substrate: substrate #3) | m5C methylation level at the target C (parent substrate: substrate #4)
CCGGCA | 0.00233 | 0.00203 | 0.0012 | 0.00126
GCUGUC | 0.005 | 0.000643 | 0.00213 | 0.00122
UCAAGC | 0.00118 | 0 | 0 | 0.00138
CCAUCC | 0 | 0.00128 | 0.00127 | 0.000582
UCUGUA | 0.00147 | 0.00156 | 0.00217 | 0
CCAAAG | 0.0152 | 0.0043 | 0.0102 | 0
CCGGCG | 0.0016 | 0 | 0.000972 | 0.00771
UCAUCA | 0 | 0.00152 | 0.00125 | 0.00107
GCCACA | 0.00136 | 0.00271 | 0.00237 | 0.00125
CCCUGA | 0.00868 | 0 | 0.00142 | 0
ACUUCU | 0 | 0.00893 | 0.00364 | 0
GCUGUA | 0.00116 | 0.00136 | 0.00513 | 0.000764
CCUGCG | 0.00138 | 0 | 0.000651 | 0
GCGUGU | 0.00754 | 0.0136 | 0 | 0.00865
GCGAAU | 0.00419 | 0.002 | 0.00168 | 0.00186
CCAAUA | 0.000843 | 0.00977 | 0 | 0.0107
GCUCAC | 0.00139 | 0 | 0.000442 | 0.00363
GCCUCG | 0.00166 | 0.00139 | 0.000439 | 0.00595
ACAAAC | 0.000664 | 0.000662 | 0 | 0
ACUACG | 0.00106 | 0 | 0.0079 | 0.000706
GCCUAA | 0.00151 | 0.00087 | 0.000351 | 0.000405
UCGUUU | 0 | 0 | 0.00106 | 0.00145
UCCGCC | 0.00134 | 0 | 0.00115 | 0.00412
CCGUGG | 0.000889 | 0.0012 | 0.00106 | 0.00273

Complete entries from above:
CCUGCG in the list: m5C methylation level at the target C [1]: 0.00138; m5C methylation level at the target C (parent substrate: substrate #2): 0; m5C methylation level at the target C (parent substrate: substrate #3): 0.000651; m5C methylation level at the target C (parent substrate: substrate #4): 0
UCAUCA in the list: m5C methylation level at the target C [1]: 0; m5C methylation level at the target C (parent substrate: substrate #2): 0.00152; m5C methylation level at the target C (parent substrate: substrate #3): 0.00125; m5C methylation level at the target C (parent substrate: substrate #4): 0.00107
CCGGCG in the list: m5C methylation level at the target C [1]: 0.0016; m5C methylation level at the target C (parent substrate: substrate #2): 0; m5C methylation level at the target C (parent substrate: substrate #3): 0.000972; m5C methylation level at the target C (parent substrate: substrate #4): 0.00771
CCGGCA in the list: m5C methylation level at the target C [1]: 0.00233; m5C methylation level at the target C (parent substrate: substrate #2): 0.00203; m5C methylation level at the target C (parent substrate: substrate #3): 0.0012; m5C methylation level at the target C (parent substrate: substrate #4): 0.00126

Next part

Sequence | m5C methylation level at the target C [1] | m5C methylation level at the target C (parent substrate: substrate #2) | m5C methylation level at the target C (parent substrate: substrate #3) | m5C methylation level at the target C (parent substrate: substrate #4)
ACACGC | 0.000727 | 0 | 0 | 0.00166
CCACCU | 0 | 0 | 0.000301 | 0.00223
ACCGAA | 0.00504 | 0.00152 | 0.00202 | 0
GCUGCU | 0.00144 | 0 | 0.000363 | 0
GCUCUA | 0.123 | 0.00187 | 0.0137 | 0.00476
GCCAUG | 0.00114 | 0.00108 | 0.00105 | 0.000496
CCUCGG | 0 | 0.00726 | 0.00225 | 0
UCAGGU | 0 | 0 | 0 | 0.00061
ACUGCC | 0.00263 | 0 | 0.00241 | 0
CCAUUG | 0.00251 | 0 | 0.000436 | 0
ACGCGG | 0 | 0.0036 | 0.00579 | 0.000531
CCUGAU | 0.000534 | 0 | 0 | 0
ACGUAC | 0.00369 | 0 | 0.000483 | 0.0022
CCUGAC | 0 | 0 | 0 | 0.00103
ACUUAU | 0 | 0 | 0.00115 | 0.000829
UCCUUG | 0.00227 | 0.00345 | 0.00113 | 0.000786
CCGGGC | 0 | 0.00168 | 0 | 0
CCGCUU | 0.0048 | 0 | 0.00117 | 0.00102
CCGCCU | 0.00261 | 0.00109 | 0.000759 | 0.00127
CCGUUU | 0 | 0.00123 | 0.000675 | 0.000544
CCAGCC | 0 | 0.00289 | 0.00311 | 0.000529
